Source: PubChem BioAssay AID1259405 (NCATS, 2018)
Aim: 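Silenced genes that increase secreted GFP made by CHO cells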 (primary screen). Cell system: Chinese hamster CHO-K1 ovary cells with stable secreted eGFP expression. Knock-down reagent: single siRNA against mouse genes, 0.8 pmol siRNA per well (2 µl of 400 nM stock). Duration: 3 days. Read-out: 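Per-well intracellular GFP measured by laser scanning cytometry, plus viability from ATP luminescence, each relative to plate median of non-targeting control wells, in %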. Scale: GFP, % of control: higher = more GFP per well, higher productivity; viability (ATP), % of control: higher = more viable cells (more ATP). Call rule: 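Called active when intracellular GFP, relative to negative control, is at or above 120%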.
This is a random part of about 50,000 reagents. Over the whole deposit, about 4,000 (8%) got an active call. 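Mouse siRNA library applied to hamster cells; one well for each siRNA.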 A number with no mark means an inactive call. Reagents against one gene are numbered here. Reagent sequences are not shown.

target,siRNA no.,"GFP, % of control","viability (ATP), % of control"
Aggf1 (GeneID 66549),1,79.4,75.1
Aggf1 (GeneID 66549),2,45.9,94.6
Aggf1 (GeneID 66549),3,82.9,99.4
Gpatch3 (GeneID 242691),1,83.2,88.8
Gpatch3 (GeneID 242691),2,111,101
Gpatch3 (GeneID 242691),3,85.2,40.9
Atf4 (GeneID 11911),1,73.2,84
Atf4 (GeneID 11911),2,102,96.7
Nipa1 (GeneID 233280),1,78.1,68.4
Nipa1 (GeneID 233280),2,110,112
Nipa1 (GeneID 233280),3,125 (active),72.5
Or5p78 (GeneID 258215),1,331 (active),135
Or5p78 (GeneID 258215),2,80.3,99.2
Or5p78 (GeneID 258215),3,55.2,47.3
Pcsk1n (GeneID 30052),1,51,71.9
Pcsk1n (GeneID 30052),2,64,81.3
Pcsk1n (GeneID 30052),3,95.2,97.2
Tmem126b (GeneID 68472),1,62.5,47.8
Tmem126b (GeneID 68472),2,53,65.5
Tmem126b (GeneID 68472),3,131 (active),120
Hsd3b3 (GeneID 15494),1,70.4,60.3
Hsd3b3 (GeneID 15494),2,74.4,70.9
Hsd3b3 (GeneID 15494),3,45.4,67.6
Mcm9 (GeneID 71567),1,62.8,66
Mcm9 (GeneID 71567),2,50.8,63.7
Mcm9 (GeneID 71567),3,98.9,86.2
Mcm9 (GeneID 71567),4,60.3,96.2
Mcm9 (GeneID 71567),5,53.9,59.3
Mcm9 (GeneID 71567),6,109,151
Defa-rs12 (GeneID 13221),1,74.6,71.7
Defa-rs12 (GeneID 13221),2,50,35.7
Defa-rs12 (GeneID 13221),3,46.7,59.4
Zfp110 (GeneID 65020),1,61.9,60.9
Zfp110 (GeneID 65020),2,67.7,71.3
Zfp110 (GeneID 65020),3,32.9,68.2
Dtnb (GeneID 13528),1,140 (active),113
Dtnb (GeneID 13528),2,47.1,62.9
Ints3 (GeneID 229543),1,97.1,88
Ints3 (GeneID 229543),2,91,33.2
Ints3 (GeneID 229543),3,90.2,96.1
Gucy2e (GeneID 14919),1,97.4,104
Gucy2e (GeneID 14919),2,121 (active),97.3
Gucy2e (GeneID 14919),3,49.1,35.8

The list goes on, starting with the last 12 of the part before.
target,siRNA no.,"GFP, % of control","viability (ATP), % of control"
Defa-rs12 (GeneID 13221),3,46.7,59.4
Zfp110 (GeneID 65020),1,61.9,60.9
Zfp110 (GeneID 65020),2,67.7,71.3
Zfp110 (GeneID 65020),3,32.9,68.2
Dtnb (GeneID 13528),1,140 (active),113
Dtnb (GeneID 13528),2,47.1,62.9
Ints3 (GeneID 229543),1,97.1,88
Ints3 (GeneID 229543),2,91,33.2
Ints3 (GeneID 229543),3,90.2,96.1
Gucy2e (GeneID 14919),1,97.4,104
Gucy2e (GeneID 14919),2,121 (active),97.3
Gucy2e (GeneID 14919),3,49.1,35.8
Ddx39a (GeneID 68278),1,78.8,58.5
Ddx39a (GeneID 68278),2,91,67.6
Ddx39a (GeneID 68278),3,137 (active),116
Prss2 (GeneID 22072),1,94.1,97
Prss2 (GeneID 22072),2,79.4,94.1
Prss2 (GeneID 22072),3,95.7,96.9
Shh (GeneID 20423),1,86.1,70.9
Shh (GeneID 20423),2,69,65
Shh (GeneID 20423),3,108,128
Fsd1 (GeneID 240121),1,135 (active),89.7
Fsd1 (GeneID 240121),2,132 (active),109
Mrnip (GeneID 68067),1,118,70.4
Mrnip (GeneID 68067),2,36.5,69.8
Mrnip (GeneID 68067),3,77,65.6
Or6ae1 (GeneID 258954),1,125 (active),44.6
Or6ae1 (GeneID 258954),2,75.4,92
Or6ae1 (GeneID 258954),3,40.5,36.9
Ca5b (GeneID 56078),1,90.7,111
Ca5b (GeneID 56078),2,55.3,68.5
Aqp3 (GeneID 11828),1,100,102
Aqp3 (GeneID 11828),2,64.2,80
Aqp3 (GeneID 11828),3,60.4,81.8
Thap1 (GeneID 73754),1,66.4,90.8
Thap1 (GeneID 73754),2,72.7,113
Thap1 (GeneID 73754),3,117,116
Nppa (GeneID 230899),1,80.5,72
Nppa (GeneID 230899),2,77.9,62.3
Nppa (GeneID 230899),3,36.8,46.9
Cyp2c29 (GeneID 13095),1,86.4,86.1
Cyp2c29 (GeneID 13095),2,66.7,43.3
Cyp2c29 (GeneID 13095),3,80.6,67.6
Gpr17 (GeneID 574402),1,23.7,37.8
Gpr17 (GeneID 574402),2,90.7,90.9
Gpr17 (GeneID 574402),3,103,47.7
H2-M10.3 (GeneID 110696),1,70.1,69.3
H2-M10.3 (GeneID 110696),2,45.8,79.8
H2-M10.3 (GeneID 110696),3,70.8,88.8
Trpc4 (GeneID 22066),1,117,84.6
Trpc4 (GeneID 22066),2,72.7,63.9
Trpc4 (GeneID 22066),3,96.3,90.5
Cage1 (GeneID 71213),1,111,59.2
Cage1 (GeneID 71213),2,106,65.6
Cage1 (GeneID 71213),3,93.7,103
